No constants are given. Whether binding was seen depends on the method and setting.
Target: MvcA, wild type (Legionella pneumophila) (UniProt Q5ZTL3)
Test: SEC; both purified

Sequences of proteins named here, by UniProt entry; tags and fusion partners are left off.
UniProt Q5ZTL3: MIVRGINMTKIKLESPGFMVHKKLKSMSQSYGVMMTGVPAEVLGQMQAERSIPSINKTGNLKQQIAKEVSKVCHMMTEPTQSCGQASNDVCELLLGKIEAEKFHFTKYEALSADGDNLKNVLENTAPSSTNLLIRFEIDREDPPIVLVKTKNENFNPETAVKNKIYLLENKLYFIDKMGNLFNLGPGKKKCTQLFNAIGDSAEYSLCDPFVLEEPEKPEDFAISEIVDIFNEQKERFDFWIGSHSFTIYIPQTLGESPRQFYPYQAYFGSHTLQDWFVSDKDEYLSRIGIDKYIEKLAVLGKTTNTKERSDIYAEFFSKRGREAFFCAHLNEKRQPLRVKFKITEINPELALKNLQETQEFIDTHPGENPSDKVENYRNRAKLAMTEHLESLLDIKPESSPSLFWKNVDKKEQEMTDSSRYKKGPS
UniProt P61088: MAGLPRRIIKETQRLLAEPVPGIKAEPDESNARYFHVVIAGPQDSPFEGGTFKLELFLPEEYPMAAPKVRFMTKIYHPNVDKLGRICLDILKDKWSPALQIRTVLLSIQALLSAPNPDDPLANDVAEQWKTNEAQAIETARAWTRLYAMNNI

Substance: UBE2N, free form (from UniProt P61088 1-152) (enzyme)
- binding: no binding

— article PMC7265302
